Data taken from ChEMBL document CHEMBL3988442, “University of Dundee, Small-Polar-MMV Screening Library” (2021).

Mtb cholesterol medium: 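Growth of Mycobacterium tuberculosis over 4 days (cholesterol / DPPC medium with tyloxapol); the read-out is not stated. Concentration: 50 µM. The record gives no direction; compounds that gave an IC50 in retests scored well above the rest, so higher reads as more growth inhibition. About 69,000 compounds were tested under these conditions; 0.54% (about 370) showed 50% or more at least once.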
Mtb glucose medium: 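Whole-cell growth test on Mycobacterium tuberculosis, read after 3 days in glucose-containing 7H9 medium; the read-out is not stated. Concentration: 50 µM. The record gives no direction; compounds that gave an IC50 in retests scored well above the rest, so higher reads as more growth inhibition. About 69,000 compounds were tested under these conditions; 1.1% (about 760) showed 50% or more at least once.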

Results are given as percent effect. The record does not define 0% and 100%; most values in the screen are far below 50% and negative numbers occur (in some assays of this library far below -100). The compounds are a random part of those screened. Two or more numbers in one place are separate tests of the same structure; such repeats can differ widely.

compound,Mtb cholesterol medium,Mtb glucose medium
CC(C)(C)n1ncc2c1NC(=O)CC2c1ccsc1 (stereo not drawn),-17.29,-27.03
Cc1cn2c(n1)CCC(NC(=O)c1ccc(CS(C)(=O)=O)o1)C2 (stereo not drawn),14.7,4.044
CCCNC(=O)COc1ccc(-c2ccccc2)nc1,18.41,40.12
Cc1ccc(C(C(=O)NCCN2CCCCCC2)N(C)C)cc1 (stereo not drawn),-8.543,22.24
N#Cc1ccnc(N2CCN(C(=O)Cc3ccc4c(c3)CCO4)CC2)c1,14.7,23.81
Cc1cc(N2CCN(C(=O)c3cnn(C(C)C)c3)CC2)cc(C)n1,-29.95,-39.32
CC(C)c1cc(C(=O)N2CCCN(CCCc3ccccc3)CC2)[nH]n1,-11.89,14.05
CCOC(=O)C1CC2(CCOCC2)N2CCC(=O)N12 (stereo not drawn),15.3,33.26
CC(C)N(C)CC(=O)NCCc1nc(C(F)(F)F)cs1,18.34,13.18
COC(C(=O)N1CCCN(Cc2cscn2)CC1)c1ccccc1 (stereo not drawn),0.5451,-32.47
CS(=O)(=O)CCCOc1cccc(-n2cccn2)c1,-12.63,-19.37 & -0.6976
CC(C(=O)Nc1ccc(N2CCOCC2)nc1)n1cncn1 (stereo not drawn),-14.34,0.5917 & 16.71
Cc1c(C)n(-c2ccccn2)c2nc3c(c(N)c12)CCCC3,16.22,30.72
Cc1cc(CN2CCCC2)cc(Oc2nc(C)cnc2C)c1,14.06,10.38
COc1nccnc1N1CCCC2(C1)C(=O)N(C)c1ccccc12 (stereo not drawn),-20.67,-26.52
Cc1ccc(C(=O)NS(=O)(=O)c2cc(Cl)ccc2Cl)c(=O)[nH]1,-0.1813,11.83
Cc1ncc(CNC2CCc3nc(C(C)C)nn3C2)s1 (stereo not drawn),-10.31,0.4658
COCC(=O)N[C@H](C)c1onc(-c2ccccc2)c1C(=O)O,-21.21,-33.57 & 0.1513
O=C(NCc1cccnc1-n1cncn1)c1cc(Cl)ccn1,7.609,-16.24
Cc1nc(C)n(C2CCCN(C(=O)COCc3ccccc3)C2)n1 (stereo not drawn),-3.37,2.223
CC(C)Nc1cc(N2CCC(n3cc(CCO)nn3)CC2)ncn1,-36.21 & -15.73,-28.72
COC(=O)COc1c(F)cc(Br)cc1C(C)=O,-6.711,11.15
Cc1cccc(CC(=O)N2CCN(c3nccn3C)CC2)c1.Cl,-9.446,8.946
CCN1C(=O)CC(c2ccccc2)C12CCN(c1ncc(C)cn1)CC2 (stereo not drawn),-4.945,-29.95 & -2.048
Cc1cc2[nH]c(O)nc2cc1NCc1ccccc1,2.814,32.63 & 13.11
[H][C@]12C[C@H](NC(=O)c3cnn(C)c3)[C@@]1([H])CN(S(=O)(=O)c1ccc(C)cc1)C2,-12.07,19.61
CS(=O)(=O)c1cncnc1C1CCCNC1.Cl (stereo not drawn),-9.242,11.88
O=C(O)c1ccccc1-c1ccc(CNC(=O)C2CCOCC2)cc1,-8.452 & 1.798,-10.36
CC(Cc1c(F)cccc1F)NC(=O)CN(CC(N)=O)C(C)C (stereo not drawn),-19.52,12.87
N#CCCN(c1ccc(F)cc1)S(=O)(=O)CC1CCCCO1 (stereo not drawn),-8.574,-0.4623 & -31.13
CSCCc1ccc(NC(=O)NCc2ccnc(N(C)C)c2)cc1,-26.19,-28.86
COc1c(C)cnc(CN(C)C(=O)c2ccccn2)c1C,4.526,-13.08
CCCNCc1ccc(OCc2ccc3c(c2)OCCO3)cc1.Cl,20.43,28.18
O=C(NC[C@H]1OC[C@@H](NC2COC2)[C@@H]1O)C1CCCC1,-22.61,-38.35 & -4.858
O=C(Nc1cccc(OC(F)F)c1)C1CN(S(=O)(=O)C2CC2)C1,9.905,-1.176 & 14.89
Cc1ncsc1C(=O)NCCNc1ncccn1,-28.76,-14.42
Cc1cc(C(=O)N2CCc3nc4sc(C)cc4c(=O)n3CC2)on1,-15.7,8.933
[H][C@@]12CN(C(=O)c3cscn3)C[C@@]1([H])N(CC1CCCC1)C(=O)CO2,-32.3,-20.25
CCc1ncc2c(n1)CN(Cc1nc(-c3ccco3)oc1C)CC2,-7.735,-8.797
Cn1cccc1CN(C(=O)Cc1cccs1)C1CC1,6.275,29.64
CN(C)CCNc1cc(-c2ncccc2Cl)c2cc[nH]c2n1,6.768 & 0.1532,1.416
Cc1nn(C)c(C)c1NC(=O)CNC(c1ccccc1)C1CCC1 (stereo not drawn),-3.086,2.501
Cn1cc(CN2CCC3(CC2)CN(C(=O)c2cnccn2)CCO3)cn1,-20.68,0.868
Cc1cc(CNS(=O)(=O)CCCC#N)ccc1N(C)C,-1.011,-10.12
Cc1csc(N2CCCN(C(=O)c3nccnc3N)CC2)n1,-18.03,0.1695 & 0.7779
CCN(CC1CN(Cc2ncc[nH]2)CCO1)c1cccnn1 (stereo not drawn),-22.37,-27.58
O=C(O)C(F)(F)F.[H][C@@]12CCCO[C@]1([H])[C@H](NS(C)(=O)=O)CN(Cc1ccc(C)o1)C2,8.653,-3.195 & -0.5053
Cc1cc(CN2CCN(C(=O)CCCc3nc(C(C)C)no3)CC2)on1,-17.31,-40.46 & 0.5215
CCn1ncc2c1CN(CCc1cccc(Cl)c1)CC2COC.O=C(O)C(F)(F)F.O=C(O)C(F)(F)F (stereo not drawn),5.593,37.97
Cc1nnc(N2CCC(NS(C)(=O)=O)CC2)c(C#N)c1C,10.07,9.494
Cc1nc(N(C)C)ncc1C(=O)N[C@@H]1CCc2ccccc21,9.157,-0.8346
N#Cc1nccnc1N1CCC(c2nc(C(F)(F)F)c[nH]2)CC1,3.543,12.21
CC(c1ccc(-c2cnc(N)nc2)cc1)N1CCOCC1 (stereo not drawn),5.944,30.16 & 7.825
Cc1ccc(S(=O)(=O)NCC2COCc3c(C)nnn3C2)cc1F (stereo not drawn),-8.403,23.53
O=C(c1ccn(-c2cccc(Cl)c2)n1)N1CCN(CCO)CC1,-14.17,15.18
Cc1cccnc1CN1CCN(C(=O)c2ccn(C(C)(C)C)c2)CC1,-63.03,-99.41
CCc1nnc2n1CCN(C(=O)c1ccc(C)c(S(N)(=O)=O)c1)C2,9.817,27.44
Cc1cc(C)n(-c2ccc(C(C)NS(N)(=O)=O)cc2)n1 (stereo not drawn),-14.35,-23.33
CC(NCc1ccncc1)c1cc(F)ccc1N1CCN(C)CC1 (stereo not drawn),6.743,30.18
O=C(c1cccc2cccnc12)N1CCCN(c2cccnn2)CC1,-4.073,4.897
[H][C@]12CCN(S(=O)(=O)N(C)C)C[C@@]1([H])CN(Cc1cnn(C)c1)C2,-17.08,-19.72
CN(CC(N)=O)C(=O)C1Cc2cc(Cl)ccc2O1 (stereo not drawn),-9.37,-1.128 & -39.79
COCc1ccc(C(=O)N2CCC(Oc3ccccc3OC)CC2)s1,-4.062,10.45
COc1cc2c(cc1OC)S(=O)(=O)N(Cc1ccccc1)C2=O,-11.6,-4.733
Cc1ccc(C2CCCCCN2C(=O)Nc2cn[nH]c2)o1 (stereo not drawn),17.38,-0.7424 & -0.2898
O=C(O)C(F)(F)F.O=C(O)C(F)(F)F.[H][C@@]12CN(Cc3nccs3)C[C@]1([H])OCCN2c1ccc(C)nn1,5.392,-0.6271
O=C(CN1C(=O)c2ccccc2C1=O)N1CCOC2(CCOCC2)C1,-1.426,-10.8
CCn1cnnc1CNC(=O)N(C)Cc1ccc(Cl)cc1Cl,-27.55,-11.92 & -33.02
O=C(c1ccc(C2CCCN2C(=O)c2ccc[nH]2)s1)N1CCSCC1 (stereo not drawn),0.5813,9.318 & -24.14

The last 6 entries again:

| compound | Mtb cholesterol medium | Mtb glucose medium |
|---|---|---|
| `COc1cc2c(cc1OC)S(=O)(=O)N(Cc1ccccc1)C2=O` | -11.6 | -4.733 |
| `Cc1ccc(C2CCCCCN2C(=O)Nc2cn[nH]c2)o1` (stereo not drawn) | 17.38 | -0.7424 & -0.2898 |
| `O=C(O)C(F)(F)F.O=C(O)C(F)(F)F.[H][C@@]12CN(Cc3nccs3)C[C@]1([H])OCCN2c1ccc(C)nn1` | 5.392 | -0.6271 |
| `O=C(CN1C(=O)c2ccccc2C1=O)N1CCOC2(CCOCC2)C1` | -1.426 | -10.8 |
| `CCn1cnnc1CNC(=O)N(C)Cc1ccc(Cl)cc1Cl` | -27.55 | -11.92 & -33.02 |
| `O=C(c1ccc(C2CCCN2C(=O)c2ccc[nH]2)s1)N1CCSCC1` (stereo not drawn) | 0.5813 | 9.318 & -24.14 |